Eight molecules from paper PMC8688145 can be followed below.

These are yes or no findings as the source states them, for the method shown. For some of these results: Binding seen in cells or lysates may run through a third protein. Some binding calls cover weakened binding; strength is not graded here. Tags and fused reporters may be left off the sequences shown.

Experiment [1] concerns the target human PEX2–FLAG–Myc (human) (UniProt P28328). The experiment can be described thus: condition: only eluted by Laemmli buffer with BME (reducing state); reducing SDS-PAGE and immunoblot after IP; as a3, but PEX2 eluted by Laemmli buffer with BME. A general note: A western blot detects proteins with antibodies after separation by electrophoresis.
The target is the same in experiment [2]. The experiment can be described thus: non-reducing SDS-PAGE and immunoblot after IP (disulfide-linked oligomers); FLAG-tagged PEX2 enriched by anti-FLAG IP from HEK293T cells, iBAs or mouse liver, eluted in BME-free Laemmli buffer; with or without H2O2 or MG132 treatment of the cells.
The target of experiment [3] is T1, FLAG-tagged human PEX2 (PEX2–FLAG) (human) (UniProt P28328).
T1 sequence: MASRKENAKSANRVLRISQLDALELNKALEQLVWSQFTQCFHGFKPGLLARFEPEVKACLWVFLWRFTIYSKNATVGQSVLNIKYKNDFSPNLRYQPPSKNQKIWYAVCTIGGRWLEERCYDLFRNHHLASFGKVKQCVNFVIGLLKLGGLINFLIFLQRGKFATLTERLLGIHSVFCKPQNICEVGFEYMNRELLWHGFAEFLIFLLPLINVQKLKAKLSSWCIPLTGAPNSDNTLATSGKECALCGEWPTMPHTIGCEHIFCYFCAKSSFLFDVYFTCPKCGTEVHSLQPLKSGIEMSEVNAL
The experiment can be described thus: co-IP; HEK293T whole cell extract 48 h after expressing PEX2–FLAG, LD formation induced by oleic acid; IP with anti-FLAG beads overnight at 4 °C in RIPA buffer (50 mM Tris-HCl pH 7.4, 150 mM NaCl, 2 mM EDTA, 1.0% Triton X-100); immunoblot.

Experiment [4] deals with T2, murine PEX2–FLAG–EGFP (mouse) (UniProt P55098).
T2 sequence: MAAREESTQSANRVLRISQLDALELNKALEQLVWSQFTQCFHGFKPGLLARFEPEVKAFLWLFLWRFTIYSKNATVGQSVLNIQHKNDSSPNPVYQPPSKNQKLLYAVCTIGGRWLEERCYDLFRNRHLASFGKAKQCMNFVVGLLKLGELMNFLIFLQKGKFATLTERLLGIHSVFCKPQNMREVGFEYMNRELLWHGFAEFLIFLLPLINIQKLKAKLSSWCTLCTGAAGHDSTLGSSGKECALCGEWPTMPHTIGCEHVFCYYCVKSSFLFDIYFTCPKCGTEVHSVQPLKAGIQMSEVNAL
Briefly: proximity ligation; fixed iBAs expressing tagged PEX2; mouse FLAG antibody and rabbit ATGL antibody, Sigma-Aldrich DUO92101 kit; no antibodies as negative control.

Experiment [5] has as its target PEX2–FLAG expressed in iBAs (not stated (human or mouse cDNA cloned)) (UniProt P55098). The experiment can be described thus: non-reducing SDS-PAGE and immunoblot after IP (disulfide-linked oligomers); FLAG-tagged PEX2 enriched by anti-FLAG IP from HEK293T cells, iBAs or mouse liver, eluted in BME-free Laemmli buffer; with or without H2O2 or MG132 treatment of the cells.

Experiment [6] deals with FLAG-tagged murine PEX2 expressed in the liver (mouse) (UniProt P55098). The experiment can be described thus: condition: only after β-mercaptoethanol (BME) treatment; reducing SDS-PAGE and immunoblot after IP; as a3, but PEX2 eluted by Laemmli buffer with BME.
The target is the same in experiment [7]. Briefly: non-reducing SDS-PAGE and immunoblot after IP (disulfide-linked oligomers); FLAG-tagged PEX2 enriched by anti-FLAG IP from HEK293T cells, iBAs or mouse liver, eluted in BME-free Laemmli buffer; with or without H2O2 or MG132 treatment of the cells.
The target of experiment [8] is T2, murine PEX2–FLAG–EGFP (mouse). The experiment is described as above.

B1: human PEX2–FLAG–Myc (protein, UniProt P28328 1-305)
chain: MASRKENAKSANRVLRISQLDALELNKALEQLVWSQFTQCFHGFKPGLLARFEPEVKACLWVFLWRFTIYSKNATVGQSVLNIKYKNDFSPNLRYQPPSKNQKIWYAVCTIGGRWLEERCYDLFRNHHLASFGKVKQCVNFVIGLLKLGGLINFLIFLQRGKFATLTERLLGIHSVFCKPQNICEVGFEYMNRELLWHGFAEFLIFLLPLINVQKLKAKLSSWCIPLTGAPNSDNTLATSGKECALCGEWPTMPHTIGCEHIFCYFCAKSSFLFDVYFTCPKCGTEVHSLQPLKSGIEMSEVNAL
modifications: intramolecular and intermolecular disulfide bonds (non-reducing state)
As to B1, the results for the binding entry in experiment [1] and in experiment [2] were “no binding” and “binds”, respectively.

B2: CGI-58 (protein, UniProt Q8WTS1 1-349)
chain: MAAEEEEVDSADTGERSGWLTGWLPTWCPTSISHLKEAEEKMLKCVPCTYKKEPVRISNGNKIWTLKFSHNISNKTPLVLLHGFGGGLGLWALNFGDLCTNRPVYAFDLLGFGRSSRPRFDSDAEEVENQFVESIEEWRCALGLDKMILLGHNLGGFLAAAYSLKYPSRVNHLILVEPWGFPERPDLADQDRPIPVWIRALGAALTPFNPLAGLRIAGPFGLSLVQRLRPDFKRKYSSMFEDDTVTEYIYHCNVQTPSGETAFKNMTIPYGWAKRPMLQRIGKMHPDIPVSVIFGARSCIDGNSGTSIQSLRPHSYVKTIAILGAGHYVYADQPEEFNQKVKEICDTVD
For the molecule B2, the binding entry in experiment [3] is given as “no binding”.

B3: ATGL, endogenous in iBAs (enzyme, UniProt Q8BJ56 1-486)
chain: MFPRETKWNISFAGCGFLGVYHIGVASCLREHAPFLVANATHIYGASAGALTATALVTGACLGEAGANIIEVSKEARKRFLGPLHPSFNLVKTIRGCLLKTLPADCHERANGRLGISLTRVSDGENVIISHFSSKDELIQANVCSTFIPVYCGLIPPTLQGVRYVDGGISDNLPLYELKNTITVSPFSGESDICPQDSSTNIHELRVTNTSIQFNLRNLYRLSKALFPPEPMVLREMCKQGYRDGLRFLRRNGLLNQPNPLLALPPVVPQEEDAEEAAVVEERAGEEDQLQPYRKDRILEHLPARLNEALLEACVEPKDLMTTLSNMLPVRLATAMMVPYTLPLESAVSFTIRLLEWLPDVPEDIRWMKEQTGSICQYLVMRAKRKLGDHLPSRLSEQVELRRAQSLPSVPLSCATYSEALPNWVRNNLSLGDALAKWEECQRQLLLGLFCTNVAFPPDALRMRAPASPTAADPATPQDPPGLPPC
As to B3, in experiment [4], the binding entry is given as “binds”.

B4: adipose triglyceride lipase (ATGL), endogenous in HEK293T (enzyme, UniProt Q96AD5 1-504)
chain: MFPREKTWNISFAGCGFLGVYYVGVASCLREHAPFLVANATHIYGASAGALTATALVTGVCLGEAGAKFIEVSKEARKRFLGPLHPSFNLVKIIRSFLLKVLPADSHEHASGRLGISLTRVSDGENVIISHFNSKDELIQANVCSGFIPVYCGLIPPSLQGVRYVDGGISDNLPLYELKNTITVSPFSGESDICPQDSSTNIHELRVTNTSIQFNLRNLYRLSKALFPPEPLVLREMCKQGYRDGLRFLQRNGLLNRPNPLLALPPARPHGPEDKDQAVESAQAEDYSQLPGEDHILEHLPARLNEALLEACVEPTDLLTTLSNMLPVRLATAMMVPYTLPLESALSFTIRLLEWLPDVPEDIRWMKEQTGSICQYLVMRAKRKLGRHLPSRLPEQVELRRVQSLPSVPLSCAAYREALPGWMRNNLSLGDALAKWEECQRQLLLGLFCTNVAFPPEALRMRAPADPAPAPADPASPQHQLAGPAPLLSTPAPEARPVIGALGL
Regarding B4, the binding entry in experiment [3] is on record as “binds”.

B5: human ATGL–FLAG (enzyme, UniProt Q96AD5 1-504)
chain: MFPREKTWNISFAGCGFLGVYYVGVASCLREHAPFLVANATHIYGASAGALTATALVTGVCLGEAGAKFIEVSKEARKRFLGPLHPSFNLVKIIRSFLLKVLPADSHEHASGRLGISLTRVSDGENVIISHFNSKDELIQANVCSGFIPVYCGLIPPSLQGVRYVDGGISDNLPLYELKNTITVSPFSGESDICPQDSSTNIHELRVTNTSIQFNLRNLYRLSKALFPPEPLVLREMCKQGYRDGLRFLQRNGLLNRPNPLLALPPARPHGPEDKDQAVESAQAEDYSQLPGEDHILEHLPARLNEALLEACVEPTDLLTTLSNMLPVRLATAMMVPYTLPLESALSFTIRLLEWLPDVPEDIRWMKEQTGSICQYLVMRAKRKLGRHLPSRLPEQVELRRVQSLPSVPLSCAAYREALPGWMRNNLSLGDALAKWEECQRQLLLGLFCTNVAFPPEALRMRAPADPAPAPADPASPQHQLAGPAPLLSTPAPEARPVIGALGL
B5: in experiment [3], the binding result is on record as “binds”.

B6: PEX2–FLAG expressed in iBAs (protein, UniProt P55098 1-305)
chain: MAAREESTQSANRVLRISQLDALELNKALEQLVWSQFTQCFHGFKPGLLARFEPEVKAFLWLFLWRFTIYSKNATVGQSVLNIQHKNDSSPNPVYQPPSKNQKLLYAVCTIGGRWLEERCYDLFRNRHLASFGKAKQCMNFVVGLLKLGELMNFLIFLQKGKFATLTERLLGIHSVFCKPQNMREVGFEYMNRELLWHGFAEFLIFLLPLINIQKLKAKLSSWCTLCTGAAGHDSTLGSSGKECALCGEWPTMPHTIGCEHVFCYYCVKSSFLFDIYFTCPKCGTEVHSVQPLKAGIQMSEVNAL
modifications: intramolecular and intermolecular disulfide bonds (non-reducing state)
For B6, in experiment [5], the binding entry is listed as “binds”.

B7: FLAG-tagged murine PEX2 expressed in the liver (protein, UniProt P55098 1-305)
chain: MAAREESTQSANRVLRISQLDALELNKALEQLVWSQFTQCFHGFKPGLLARFEPEVKAFLWLFLWRFTIYSKNATVGQSVLNIQHKNDSSPNPVYQPPSKNQKLLYAVCTIGGRWLEERCYDLFRNRHLASFGKAKQCMNFVVGLLKLGELMNFLIFLQKGKFATLTERLLGIHSVFCKPQNMREVGFEYMNRELLWHGFAEFLIFLLPLINIQKLKAKLSSWCTLCTGAAGHDSTLGSSGKECALCGEWPTMPHTIGCEHVFCYYCVKSSFLFDIYFTCPKCGTEVHSVQPLKAGIQMSEVNAL
modifications: intermolecular and intramolecular disulfide bonds (without BME)
As to B7, the values for the binding result in experiment [6] and in experiment [7] were “no binding” and “binds”, respectively.

B8: murine PEX2–FLAG–EGFP (protein, UniProt P55098 1-305)
chain: MAAREESTQSANRVLRISQLDALELNKALEQLVWSQFTQCFHGFKPGLLARFEPEVKAFLWLFLWRFTIYSKNATVGQSVLNIQHKNDSSPNPVYQPPSKNQKLLYAVCTIGGRWLEERCYDLFRNRHLASFGKAKQCMNFVVGLLKLGELMNFLIFLQKGKFATLTERLLGIHSVFCKPQNMREVGFEYMNRELLWHGFAEFLIFLLPLINIQKLKAKLSSWCTLCTGAAGHDSTLGSSGKECALCGEWPTMPHTIGCEHVFCYYCVKSSFLFDIYFTCPKCGTEVHSVQPLKAGIQMSEVNAL
For B8, in experiment [8], the binding entry is recorded as “binds”.
